Reference: PMC10362714
No constants are given. Whether binding was seen depends on the method and setting. Binding seen in cells or lysates may run through a third protein. Some results given as binding are weak or reduced against the parent protein; the word gives no strength.

Sequences of proteins named here, by UniProt entry; tags and fusion partners are left off. Residues count along the entry.
UniProt P21796: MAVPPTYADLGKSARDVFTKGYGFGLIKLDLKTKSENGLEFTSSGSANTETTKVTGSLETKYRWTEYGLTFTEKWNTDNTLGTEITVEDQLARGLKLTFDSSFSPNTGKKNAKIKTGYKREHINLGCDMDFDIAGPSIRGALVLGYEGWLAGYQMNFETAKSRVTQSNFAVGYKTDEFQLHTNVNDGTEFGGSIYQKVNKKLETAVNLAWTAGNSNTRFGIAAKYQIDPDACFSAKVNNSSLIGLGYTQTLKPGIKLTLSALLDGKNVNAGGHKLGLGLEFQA
UniProt P38646, residues 47-679: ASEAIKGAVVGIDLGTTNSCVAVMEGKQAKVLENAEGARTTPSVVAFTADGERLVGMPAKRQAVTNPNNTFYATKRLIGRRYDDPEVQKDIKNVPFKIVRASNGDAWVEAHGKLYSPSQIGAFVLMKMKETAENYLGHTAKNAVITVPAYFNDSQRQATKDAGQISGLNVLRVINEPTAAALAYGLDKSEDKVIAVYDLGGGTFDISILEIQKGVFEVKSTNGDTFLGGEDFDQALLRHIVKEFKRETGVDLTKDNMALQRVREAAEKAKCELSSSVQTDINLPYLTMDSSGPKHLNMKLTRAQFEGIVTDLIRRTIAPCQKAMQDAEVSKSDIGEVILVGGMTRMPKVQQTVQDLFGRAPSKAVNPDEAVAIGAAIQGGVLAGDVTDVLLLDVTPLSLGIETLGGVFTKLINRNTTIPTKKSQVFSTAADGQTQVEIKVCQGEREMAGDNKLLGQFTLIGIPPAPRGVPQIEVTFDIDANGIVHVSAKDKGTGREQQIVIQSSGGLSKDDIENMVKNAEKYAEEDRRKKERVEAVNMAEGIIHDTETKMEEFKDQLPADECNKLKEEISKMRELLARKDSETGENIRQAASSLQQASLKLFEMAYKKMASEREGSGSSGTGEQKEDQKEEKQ

Target: voltage-dependent anion channel 1 (VDAC1), human, in SH-SY5Y cells (human (endogenous in SH-SY5Y)) (UniProt P21796)
Assay: co-IP; SH-SY5Y cells lysed in RIPA buffer and sonicated; 2 mg protein with 4 ug anti-VDAC1 polyclonal antibody overnight at 4 C, protein A/G agarose beads 4-6 h, washed thrice with cold PBS, western blot; cells in normal or high glucose (25 mM, 48 h), with or without lentiviral SIRT3 overexpression

Q: “glucose-regulated protein 75 (GRP75), human, in SH-SY5Y cells (from UniProt P38646 47-679)” was tested. Which binding did it give?
A: Its binding is “binds”.
